These results are taken from patent US20260159618A1, “COMPOUND, POLYMERIZABLE COMPOSITION, POLYMER, HOLOGRAPHIC RECORDING MEDIUM, OPTICAL MATERIAL, AND OPTICAL COMPONENT” (Mitsubishi Chemical Corporation, priority 2022, published 2026).

The nature of one series: Holographic recording, total Δn of holographic recording medium using the monomer. Further details: key to total Δn (dash symbol): ⊚: 0.019 or more; ◯: 0.015 or more and less than 0.019; Δ: 0.010 or more and less than 0.015; x: less than 0.010; —: impossible to measure. The following applies: 405 nm two-beam recording, 151 multiple recordings, 0.5 mm recording layer, 58.3 μmol/g monomer; maximum value.
Take `C=C(C)C(=O)OCCNC(=O)Oc1c(-c2cc3ccccc3c3ccccc23)cc(-c2cc3ccccc3c3ccccc23)cc1-c1cc2ccccc2c2ccccc12` [Compound M-2]: the “total Δn” value amounted to 0.0250.
Turning to `C=CC(=O)OCCNC(=O)Oc1c(-c2cccc3c2sc2ccccc23)cc(-c2cccc3c2sc2ccccc23)cc1-c1cccc2c1sc1ccccc12` [Compound M-3], the “total Δn” value came out at 0.0195.
The same measure, in the same setting: for `C=CC(=O)OCCOc1c(-c2cc3ccccc3c3ccccc23)cc(-c2cc3ccccc3c3ccccc23)cc1-c1cc2ccccc2c2ccccc12` [Compound M-10] the value was 0.0160; for `C=C(C)C(=O)OCCNC(=O)Oc1c(-c2cccc3c2sc2ccccc23)cc(-c2cccc3c2sc2ccccc23)cc1-c1cccc2c1sc1ccccc12` [Compound M-1], 0.0222.
Same read-out and setting: the same measure for `C=CC(=O)OCCCOc1c(-c2cc3ccccc3c3ccccc23)cc(-c2cc3ccccc3c3ccccc23)cc1-c1cc2ccccc2c2ccccc12` [Compound M-11]: 0.0181; for `C=CC(=O)OCCNC(=O)Oc1c(-c2cc3ccccc3c3ccccc23)cc(-c2cc3ccccc3c3ccccc23)cc1-c1cc2ccccc2c2ccccc12` [Compound M-4]: 0.0194.
Same read-out and setting: the same measure for `C=CC(=O)Oc1c(-c2cccc3c2sc2ccccc23)cc(-c2cccc3c2sc2ccccc23)cc1-c1cccc2c1sc1ccccc12` [Compound R-2, reference compound]: 0.0070; for `C=CC(=O)OCCNC(=O)Oc1ccc(-c2cccc3c2sc2ccccc23)cc1-c1cccc2c1sc1ccccc12` [Compound R-1, reference compound]: 0.0115.

Still in this series, the particulars now being: sample not suitable for multiplex recording.
For the molecule `C=CC(=O)OCCCCOc1c(-c2cccc3c2sc2ccccc23)cc(-c2cccc3c2sc2ccccc23)cc1-c1cccc2c1sc1ccccc12` [Compound R-4, reference compound], the “total Δn (dash symbol)” value is “—”.
On the same count and under the same terms, the same measure for `C=CC(=O)OCCOc1c(-c2cccc3c2sc2ccccc23)cc(-c2cccc3c2sc2ccccc23)cc1-c1cccc2c1sc1ccccc12` [Compound R-3, reference compound]: “—”.
